From paper PMC4526467
No constants are given. Whether binding was seen depends on the method and setting. In cells and extracts the contact can be indirect. Some binding calls cover weakened binding; strength is not graded here.

By UniProt entry, the sequences of proteins in these tests, tags left out. Where a name states a change or a piece, a line headed by the entry shows the natural chain unless it says otherwise. Chains listed by the source or under a name are the forms on record and can include a tag or linker.
UniProt P18089: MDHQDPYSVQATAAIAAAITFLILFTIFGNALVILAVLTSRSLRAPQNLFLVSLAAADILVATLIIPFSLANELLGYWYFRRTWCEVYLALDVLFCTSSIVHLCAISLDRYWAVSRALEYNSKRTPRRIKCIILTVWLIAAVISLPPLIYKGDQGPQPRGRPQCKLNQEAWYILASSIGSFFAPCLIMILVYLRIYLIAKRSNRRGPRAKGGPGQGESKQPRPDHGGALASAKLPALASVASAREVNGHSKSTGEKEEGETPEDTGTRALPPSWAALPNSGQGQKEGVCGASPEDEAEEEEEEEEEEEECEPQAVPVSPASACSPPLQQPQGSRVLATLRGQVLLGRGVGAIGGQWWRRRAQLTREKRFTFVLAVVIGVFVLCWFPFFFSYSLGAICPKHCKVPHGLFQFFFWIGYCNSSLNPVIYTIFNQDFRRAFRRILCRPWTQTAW
HA-tagged Del301-303 α2BAR (pcDNA3.1-HA-Del301-303) (P18089, form named): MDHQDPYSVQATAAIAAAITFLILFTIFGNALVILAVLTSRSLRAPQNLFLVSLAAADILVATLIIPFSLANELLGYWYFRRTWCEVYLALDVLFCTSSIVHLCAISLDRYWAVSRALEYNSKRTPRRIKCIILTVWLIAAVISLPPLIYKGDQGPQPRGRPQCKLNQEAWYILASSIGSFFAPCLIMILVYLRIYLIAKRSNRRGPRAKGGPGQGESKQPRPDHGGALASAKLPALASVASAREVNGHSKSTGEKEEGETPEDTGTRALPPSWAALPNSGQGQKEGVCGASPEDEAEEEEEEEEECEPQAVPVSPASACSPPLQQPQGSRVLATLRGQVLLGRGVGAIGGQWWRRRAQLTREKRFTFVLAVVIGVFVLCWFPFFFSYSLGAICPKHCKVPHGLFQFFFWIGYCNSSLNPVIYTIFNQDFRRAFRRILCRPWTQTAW
UniProt O35274: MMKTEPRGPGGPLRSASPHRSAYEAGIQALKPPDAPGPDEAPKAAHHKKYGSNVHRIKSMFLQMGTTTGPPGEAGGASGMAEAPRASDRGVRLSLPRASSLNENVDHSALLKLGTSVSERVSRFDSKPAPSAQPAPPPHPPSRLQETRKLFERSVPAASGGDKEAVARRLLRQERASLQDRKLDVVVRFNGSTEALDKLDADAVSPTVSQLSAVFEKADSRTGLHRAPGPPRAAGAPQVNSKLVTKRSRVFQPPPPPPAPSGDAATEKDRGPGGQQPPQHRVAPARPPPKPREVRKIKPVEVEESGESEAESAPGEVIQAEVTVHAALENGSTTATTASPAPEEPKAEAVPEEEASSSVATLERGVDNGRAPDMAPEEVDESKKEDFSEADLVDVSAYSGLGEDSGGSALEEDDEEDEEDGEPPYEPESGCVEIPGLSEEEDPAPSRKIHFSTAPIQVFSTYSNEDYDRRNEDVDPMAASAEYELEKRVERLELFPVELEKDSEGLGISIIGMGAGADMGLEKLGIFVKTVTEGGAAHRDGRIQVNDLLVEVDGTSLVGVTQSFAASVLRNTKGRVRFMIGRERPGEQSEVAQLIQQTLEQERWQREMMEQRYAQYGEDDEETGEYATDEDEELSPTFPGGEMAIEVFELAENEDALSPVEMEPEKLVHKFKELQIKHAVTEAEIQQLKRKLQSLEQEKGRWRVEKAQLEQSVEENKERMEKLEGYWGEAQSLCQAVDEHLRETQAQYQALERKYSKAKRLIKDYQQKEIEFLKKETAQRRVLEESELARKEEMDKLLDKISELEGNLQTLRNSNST
UniProt Q91YI4: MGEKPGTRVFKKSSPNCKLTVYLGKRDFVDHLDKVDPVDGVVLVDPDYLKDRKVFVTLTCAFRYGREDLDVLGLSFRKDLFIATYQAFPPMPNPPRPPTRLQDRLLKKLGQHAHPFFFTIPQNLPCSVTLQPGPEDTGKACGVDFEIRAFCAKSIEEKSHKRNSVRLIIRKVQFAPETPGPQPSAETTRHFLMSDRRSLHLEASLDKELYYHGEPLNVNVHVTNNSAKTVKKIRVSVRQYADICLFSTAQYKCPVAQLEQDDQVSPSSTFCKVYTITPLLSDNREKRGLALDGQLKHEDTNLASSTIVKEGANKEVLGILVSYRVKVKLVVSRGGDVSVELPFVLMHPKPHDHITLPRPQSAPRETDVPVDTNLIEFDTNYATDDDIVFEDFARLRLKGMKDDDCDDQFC
UniProt Q6R891: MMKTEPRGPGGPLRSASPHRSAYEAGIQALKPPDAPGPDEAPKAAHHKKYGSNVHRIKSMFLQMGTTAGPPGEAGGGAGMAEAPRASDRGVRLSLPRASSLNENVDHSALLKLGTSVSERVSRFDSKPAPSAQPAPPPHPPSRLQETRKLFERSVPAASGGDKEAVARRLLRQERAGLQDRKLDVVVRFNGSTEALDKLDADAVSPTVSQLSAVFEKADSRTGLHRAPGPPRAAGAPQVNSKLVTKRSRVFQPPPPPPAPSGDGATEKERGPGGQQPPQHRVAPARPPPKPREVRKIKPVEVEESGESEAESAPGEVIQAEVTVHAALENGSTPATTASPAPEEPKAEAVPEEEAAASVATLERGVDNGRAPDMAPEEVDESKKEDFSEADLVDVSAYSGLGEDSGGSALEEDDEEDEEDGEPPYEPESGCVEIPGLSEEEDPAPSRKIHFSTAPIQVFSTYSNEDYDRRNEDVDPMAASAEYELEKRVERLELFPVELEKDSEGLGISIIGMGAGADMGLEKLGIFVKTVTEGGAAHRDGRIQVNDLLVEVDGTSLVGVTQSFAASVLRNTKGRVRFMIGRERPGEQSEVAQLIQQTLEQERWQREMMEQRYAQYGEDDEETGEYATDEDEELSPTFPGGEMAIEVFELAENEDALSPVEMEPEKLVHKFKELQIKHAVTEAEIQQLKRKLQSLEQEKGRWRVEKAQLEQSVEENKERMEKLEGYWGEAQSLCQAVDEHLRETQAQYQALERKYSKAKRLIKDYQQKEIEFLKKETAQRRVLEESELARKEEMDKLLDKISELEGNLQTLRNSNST

Assays:
[1] = biological target: HA-tagged Del301-303 α2BAR (pcDNA3.1-HA-Del301-303) (human) (UniProt P18089); assay: co-IP; transfected cells co-expressing HA-tagged WT or Del301-303 α2BAR with GFP-Arr3, GFP-Arr3R170E or Myc-spinophilin, with or without 100 μM epinephrine plus 1 μM propranolol; IP with rat anti-HA antibody
[2] = biological target: HA-tagged wild type human α2BAR (pcDNA3.1-HA-α2B) (human) (UniProt P18089); assay: as above
[3] = biological target: HA-α2BAR (α2B adrenergic receptor) expressed in mouse embryonic fibroblasts (UniProt P18089); assay: co-IP; data not shown: as in the MEF co-IP but with other α2 agonists, including clonidine and UK14,304
[4] = biological target: HA-α2BAR (α2B adrenergic receptor) expressed in mouse embryonic fibroblasts (UniProt P18089); assay: co-IP; MEFs (Sp+/+, Sp-/-, Arr2,3+/+, Arr2,3-/-) expressing HA-α2BAR, with or without 100 μM epinephrine plus 1 μM propranolol; lysis in 10 mM Tris HCl pH 8.0, 0.3% Nonidet P-40, 10% glycerol, 5 mM EDTA, 5 mM EGTA; IP with rat anti-HA antibody; endogenous arrestin 3 or spinophilin blotted

Row | binding [1] | binding [2] | binding [3] | binding [4] | Substance
1 | binds | binds |  |  | Myc-spinophilin (pCMV4-Myc-Sp) (from UniProt O35274 1-817)
2 |  |  | binds | binds | endogenous arrestin 3 (from UniProt Q91YI4 1-410)
3 |  |  | binds | binds | endogenous spinophilin (from UniProt Q6R891 1-817)
